Measurements reported in PubChem BioAssay AID1259254 (NCATS, 2017)

- Test: 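Genome-wide screen for genes that prevent DNA re-replication in cancer cells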 (primary screen)
- Cell system: human HCT116 colorectal cancer cells
- Knock-down reagent: single siRNA against human genes
- Timing: 3 days
- Detection: 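Imaged Hoechst DNA stain sorts each cell into a cycle phase by DNA amount; per plate, G2 fraction set to 0% for non-targeting and 100% for GMNN siRNA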
- Reading the numbers: G2 robust z-score: higher = more G2 cells, more excess DNA replication
- Rule for the call: 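Active siRNAs have a G2 robust z of 5 or more median absolute deviations over the median, which in these data means about 38% or higher of GMNN control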
The whole screen tested about 59,000 reagents; this is a part drawn at random. About 1,550 of all reagents (2.6%) were called active. 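G2 share is only a proxy for re-replication; each gene was hit by three separate siRNAs, and active genes were retested.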 Entries without a mark were called inactive. The numbers tell different reagents against one gene apart. Further read-outs or replicates are left out here. Not stated in the record: the amount of reagent.

G2 robust z-score, by gene knocked down and reagent
FBXW5: #1 1.29; #2 -0.961; #3 2.75
DKFZp434E1119 (retired record): #1 -0.256; #2 0.557; #3 -0.648
MEIS1-AS3: #1 -0.0939; #2 -0.985; #3 -0.323
GARIN3: #1 1.68; #2 0.31; #3 -0.779
GOLGA1: #1 -0.0664; #2 1.08; #3 -0.539
KCNA10: #1 4.65; #2 0.957; #3 0.135
PGAM1P4: #1 3.1; #2 0.581; #3 -0.492
FCHSD2: #1 -0.363; #2 0.581; #3 0.819
AMELY: #1 0.702; #2 4.03; #3 -0.52
PSMC4: #1 1.13; #2 4.36; #3 4.81

Individual results from the list:
Result for PGAM1P4 #1 in “G2 robust z-score”: 3.1
For “G2 robust z-score”, PSMC4 #1 shows 1.13
Under “G2 robust z-score”, MEIS1-AS3 #3 shows -0.323
Entry of KCNA10 #1 under “G2 robust z-score”: 4.65
DKFZp434E1119 (retired record) #2, G2 robust z-score → 0.557
Under “G2 robust z-score”, FCHSD2 #3 reads 0.819

The listing continues.
G2 robust z-score, by gene knocked down and reagent
RPL13AP20: #1 0.577; #2 1.41; #3 4.91
TARBP1: #1 2.01; #2 -0.0498; #3 -1.25
GADD45B: #1 -0.275; #2 2.35; #3 0.871
DGKD: #1 -1.02; #2 -0.771; #3 -0.121
CCDC169: #1 -0.803; #2 1.1; #3 0.476
OFD1: #1 -0.359; #2 9.23 (active); #3 1.29
LOC642249: #1 0.999; #2 0.652; #3 -0.256
ANKRD13B: #1 0.0157; #2 0.0722; #3 -0.737
CDS1: #1 -0.215; #2 -0.605; #3 7.68 (active)
C2orf92: #1 -0.149; #2 4.74; #3 0.109
LINC01061: #1 1.66; #2 -0.951; #3 0.82
TMUB2: #1 0.27; #2 0.143; #3 1.86
PI15: #1 -0.228; #2 -0.035; #3 -0.0186
RAD21-AS1: #1 1.15; #2 -0.0321; #3 -0.253
ETNK1: #1 -0.332; #2 -0.604; #3 0.82
IFNB1: #1 -0.759; #2 4.71; #3 0.0584
VAMP5: #1 2.09; #2 -0.496; #3 -0.699
PRH1: #1 4.17; #2 -0.0152; #3 -0.243
LOC284009: #1 0.442; #2 -0.332; #3 0.217
